Measured data: PubChem BioAssay AID686937 (Drosophila RNAi Screening Center, 2013)

- Test: 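Genes whose loss weakens secretory pathway function in fly cells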 (primary screen)
- Cells: Drosophila S2 cells expressing secreted horseradish peroxidase
- Reagent: long dsRNA against Drosophila genes
- Duration: about 5.5 days (5 days dsRNA, then 12 h reporter induction)
- Challenge: reporter expression induced after 5 days of dsRNA, read 12 h later; inducer not stated
- Detection: 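After 5 days of dsRNA and 12 h of reporter induction, medium peroxidase read by chemiluminescence and scored as per-plate z-score; higher values mean more reporter released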
- Direction: z-score: higher = more reporter secreted into medium
The screen tested about 23,000 reagents; this is an unselected part of those that have a named target and a result. 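Reduced-secretion tags in replicate 1 do not always agree with the z-scores; no criterion for assigning the tags was given.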 The numbers tell different reagents against one gene apart. Names joined by + are all predicted targets of the reagent. Further read-outs or replicates are left out here. Reagent sequences are not shown. Not stated in the record: the amount of reagent.

Vps13B (Vacuolar protein sorting 13B) | z-score, replicate 1 = 0.09
Fer2 (48 related 2) | z-score, replicate 1 = 0.2
CG8924 | z-score, replicate 1 = -0.02
Grd (Glycine receptor) | z-score, replicate 1 = 0.28
CG13227 | z-score, replicate 1 = 0.43
ND-30 (NADH dehydrogenase (ubiquinone) 30 kDa subunit) | z-score, replicate 1 = -0.34
mthl15 (methuselah-like 15) | z-score, replicate 1 = -1.41
VAChT + ChAT | z-score, replicate 1 = 0.47
CG10801 | z-score, replicate 1 = -0.36
CG12920 | z-score, replicate 1 = 0.16

Part of the list above, set out differently:
Target gene,reagent,"z-score, replicate 1"
CG13227,1,0.43
ND-30 (NADH dehydrogenase (ubiquinone) 30 kDa subunit),1,-0.34

Further results follow:
CG33124 | z-score, replicate 1 = 0.12
Cpr56F (Cuticular protein 56F) | z-score, replicate 1 = 0.35
Polr2I (RNA polymerase II subunit I) | z-score, replicate 1 = -6.68
Idgf4 (Imaginal disc growth factor 4) | z-score, replicate 1 = 0.13
drd (drop dead) #1 | z-score, replicate 1 = 0.26
drd (drop dead) #2 | z-score, replicate 1 = 1.29
